This passage reports binding results from paper PMC9065076.

The chains behind the UniProt entries cited, without tags or fusion partners. Where a name states a change or a piece, a line headed by the entry shows the natural chain unless it says otherwise. Residues count along the entry.
UniProt P48736: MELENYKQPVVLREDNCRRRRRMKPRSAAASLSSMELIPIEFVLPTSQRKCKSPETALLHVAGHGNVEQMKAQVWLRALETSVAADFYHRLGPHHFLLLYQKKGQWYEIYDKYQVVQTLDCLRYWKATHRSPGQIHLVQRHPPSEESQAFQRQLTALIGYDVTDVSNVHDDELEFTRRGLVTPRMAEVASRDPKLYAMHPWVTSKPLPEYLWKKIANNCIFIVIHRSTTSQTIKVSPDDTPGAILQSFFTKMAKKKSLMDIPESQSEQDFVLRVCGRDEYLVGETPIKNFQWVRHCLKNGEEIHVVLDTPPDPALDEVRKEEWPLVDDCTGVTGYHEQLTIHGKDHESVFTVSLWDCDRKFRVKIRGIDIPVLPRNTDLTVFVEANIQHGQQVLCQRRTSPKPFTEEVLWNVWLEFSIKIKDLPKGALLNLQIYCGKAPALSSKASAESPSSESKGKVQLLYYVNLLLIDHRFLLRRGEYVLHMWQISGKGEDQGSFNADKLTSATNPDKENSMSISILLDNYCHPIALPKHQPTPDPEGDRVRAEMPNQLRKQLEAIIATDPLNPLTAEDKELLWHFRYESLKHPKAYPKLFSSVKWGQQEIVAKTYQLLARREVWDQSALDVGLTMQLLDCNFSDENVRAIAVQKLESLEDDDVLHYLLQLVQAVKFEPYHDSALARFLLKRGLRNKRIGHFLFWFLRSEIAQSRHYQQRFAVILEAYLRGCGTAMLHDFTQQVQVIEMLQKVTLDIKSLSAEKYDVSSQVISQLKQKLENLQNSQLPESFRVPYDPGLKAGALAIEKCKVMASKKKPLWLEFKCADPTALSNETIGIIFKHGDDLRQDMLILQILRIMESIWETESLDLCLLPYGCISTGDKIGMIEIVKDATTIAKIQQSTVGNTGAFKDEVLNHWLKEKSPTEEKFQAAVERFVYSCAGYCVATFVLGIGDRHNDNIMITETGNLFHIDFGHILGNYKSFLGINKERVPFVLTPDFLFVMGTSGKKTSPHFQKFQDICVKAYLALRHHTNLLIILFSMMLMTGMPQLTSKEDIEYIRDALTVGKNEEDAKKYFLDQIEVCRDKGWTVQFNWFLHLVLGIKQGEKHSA
GST-p110γ_(1-216): residues 1-216 of P48736
UniProt Q96AM1: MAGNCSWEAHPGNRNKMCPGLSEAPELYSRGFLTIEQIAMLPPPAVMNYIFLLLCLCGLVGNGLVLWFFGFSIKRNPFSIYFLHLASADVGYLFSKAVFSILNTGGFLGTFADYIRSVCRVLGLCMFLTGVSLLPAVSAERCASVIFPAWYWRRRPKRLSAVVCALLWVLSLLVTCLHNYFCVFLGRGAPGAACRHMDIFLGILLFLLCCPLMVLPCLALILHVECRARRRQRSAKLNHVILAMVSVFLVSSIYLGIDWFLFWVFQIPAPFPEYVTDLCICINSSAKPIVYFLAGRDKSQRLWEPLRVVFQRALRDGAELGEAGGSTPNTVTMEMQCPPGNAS
GST-MrgprF_(274-343): residues 274-343 of Q96AM1

No constants are given. Whether binding was seen depends on the method and setting. In cells and extracts the contact can be indirect. Some results given as binding are weak or reduced against the parent protein; the word gives no strength. For part of these data: Sequences can lack the tags named with a protein.

Test [1] concerns the target endogenous p110γ (human (endogenous in CM cells)) (UniProt P48736). Description: co-IP; endogenous proteins in CM and other types of tumor cells; immunoblot. On the technique in general: Immunoblotting shows a protein as a band on a membrane.
A further test has as its target GST-p110γ_(1-216) (UniProt P48736). Description: pull-down; GST, GST-MrgprF(274-343) or GST-p110γ(1-216) bound to glutathione resin, incubated with indicated total cell extracts at 4 °C overnight; immunoblot; only the target purified.
For test [2], the target named is GST-MrgprF_(274-343) (human) (UniProt Q96AM1). The description is as above.
Test [3] concerns the target Flag-tagged p110γ (UniProt P48736). Description: co-IP; tagged constructs in pCDNA3.1+ transfected into HEK-293T; cell lysates immunoprecipitated with Flag, Myc or HA antibodies; immunoblot; in Fig. 4f with or without forced expression of MrgprF.
The target is the same in test [4]. Description: co-IP; competition co-IP: extracts of HEK-293T transfected with p110γ-Flag and HA-p101 divided; GST-MrgprF fragment (100, 200, 300 nM) or GST (100, 200 nM) added.

For the molecule “endogenous MrgprF (from UniProt Q96AM1 1-343) (receptor)”, the binding entry in test [1] was “binds”. Regarding “MrgprF in total cell extracts (prey of the GST pull-down) (from UniProt Q96AM1 1-343) (receptor)”, the binding result with GST-p110γ_(1-216) is “binds”. For the molecule “p110γ in total cell extracts (prey of the GST pull-down) (from UniProt P48736 1-1102) (enzyme)”, in test [2], the binding entry is reported as “binds”. In the case of “Myc-tagged MrgprF (from UniProt Q96AM1 1-343) (receptor)”, the binding entry with Flag-tagged p110γ [3] is listed as “binds”.

B1: HA-p101 (protein, UniProt Q8WYR1 1-880)
chain: MQPGATTCTEDRIQHALERCLHGLSLSRRSTSWSAGLCLNCWSLQELVSRDPGHFLILLEQILQKTREVQEKGTYDLLTPLALLFYSTVLCTPHFPPDSDLLLKAASTYHRFLTWPVPYCSICQELLTFIDAELKAPGISYQRLVRAEQGLPIRSHRSSTVTVLLLNPVEVQAEFLAVANKLSTPGHSPHSAYTTLLLHAFQATFGAHCDVPGLHCRLQAKTLAELEDIFTETAEAQELASGIGDAAEARRWLRTKLQAVGEKAGFPGVLDTAKPGKLHTIPIPVARCYTYSWSQDSFDILQEILLKEQELLQPGILGDDEEEEEEEEEVEEDLETDGHCAERDSLLSTSSLASHDSTLSLASSQASGPALSRHLLTSFVSGLSDGMDSGYVEDSEESSSEWPWRRGSQERRGHRRPGQKFIRIYKLFKSTSQLVLRRDSRSLEGSSDTALPLRRAGSLCSPLDEPVSPPSRAQRSRSLPQPKLGTQLPSWLLAPASRPQRRRPFLSGDEDPKASTLRVVVFGSDRISGKVARAYSNLRRLENNRPLLTRFFKLQFFYVPVKRSHGTSPGACPPPRSQTPSPPTDSPRHASPGELGTTPWEESTNDISHYLGMLDPWYERNVLGLMHLPPEVLCQQSLKAEAQALEGSPTQLPILADMLLYYCRFAARPVLLQVYQTELTFITGEKTTEIFIHSLELGHSAATRAIKASGPGSKRLGIDGDREAVPLTLQIIYSKGAISGRSRWSNLEKVCTSVNLNKACRKQEELDSSMEALTLNLTEVVKRQNSKSKKGFNQISTSQIKVDKVQIIGSNSCPFAVCLDQDERKILQSVVRCEVSPCYKPEKSDLSSPPQTPPDLPAQAAPDLCSLLCLPIMTFSGALP
In the case of B1, the binding entry in the test with Flag-tagged p110γ [3] and with Flag-tagged p110γ [4] was “binds” in each case.
